The assay addresses T1, EphrinB1 (endogenous, SCC1 cells) (human (endogenous in SCC1)) (UniProt P98172).
T1 sequence: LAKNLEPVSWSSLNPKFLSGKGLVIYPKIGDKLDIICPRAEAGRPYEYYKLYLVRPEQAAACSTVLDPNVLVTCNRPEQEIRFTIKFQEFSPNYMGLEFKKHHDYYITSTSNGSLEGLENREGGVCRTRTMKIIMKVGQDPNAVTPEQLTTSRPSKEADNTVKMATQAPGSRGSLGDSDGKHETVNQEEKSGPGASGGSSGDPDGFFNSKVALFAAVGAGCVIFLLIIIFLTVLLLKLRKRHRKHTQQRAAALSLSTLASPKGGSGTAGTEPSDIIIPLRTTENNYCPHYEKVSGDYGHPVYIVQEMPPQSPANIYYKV
Kind of assay: co-IP; endogenous EphrinB1 immunoprecipitated overnight with anti-ephrinB1 (R&D Systems AF473) from SCC1 whole cell lysate and mitotic (serum starvation, release, mitotic shake-off), soluble and insoluble fractions; lysis buffer 50mM Tris HCl pH 7.5, 150mM NaCl, 5mM EDTA, 1% Triton X-100; western blots for α/β tubulin, γ tubulin and α tubulin. (Immunoblotting shows a protein as a band on a membrane.)

The chains behind the UniProt entries cited, without tags or fusion partners. Where a name states a change or a piece, a line headed by the entry shows the natural chain unless it says otherwise.
UniProt P23258: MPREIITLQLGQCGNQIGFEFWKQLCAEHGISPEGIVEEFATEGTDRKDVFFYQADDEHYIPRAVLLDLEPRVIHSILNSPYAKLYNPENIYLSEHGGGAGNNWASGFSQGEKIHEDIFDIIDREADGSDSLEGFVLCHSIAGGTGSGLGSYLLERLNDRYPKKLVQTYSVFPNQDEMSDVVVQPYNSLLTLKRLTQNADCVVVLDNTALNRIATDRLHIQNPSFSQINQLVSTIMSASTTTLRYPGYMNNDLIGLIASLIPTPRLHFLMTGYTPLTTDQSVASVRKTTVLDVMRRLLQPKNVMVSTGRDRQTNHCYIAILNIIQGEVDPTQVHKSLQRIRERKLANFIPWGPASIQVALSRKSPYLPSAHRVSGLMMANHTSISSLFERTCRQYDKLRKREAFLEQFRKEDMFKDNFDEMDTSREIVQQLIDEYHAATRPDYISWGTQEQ

Results are given in words; binding and its absence hold for the method and conditions named. In cells and extracts the contact can be indirect. Binding calls can cover weak binding; strength is not graded here.

In the case of “γ tubulin (endogenous, SCC1 cells) (from UniProt P23258)”, the binding entry was “binds”. The entry for “α/β tubulin (endogenous, SCC1 cells) (human (endogenous in SCC1)) (complex)” is “binds”; for “α tubulin (endogenous, SCC1 cells) (human (endogenous in SCC1))” it is “binds”.

These data come from article PMC4359267.
